Source: publication PMC6522492
No constants are given. Whether binding was seen depends on the method and setting. In cells and extracts the contact can be indirect. A yes stands for co-enrichment or nearness to the bait. Other partners may have been found.

The chains behind the UniProt entries cited, without tags or fusion partners.
UniProt Q9U0K8: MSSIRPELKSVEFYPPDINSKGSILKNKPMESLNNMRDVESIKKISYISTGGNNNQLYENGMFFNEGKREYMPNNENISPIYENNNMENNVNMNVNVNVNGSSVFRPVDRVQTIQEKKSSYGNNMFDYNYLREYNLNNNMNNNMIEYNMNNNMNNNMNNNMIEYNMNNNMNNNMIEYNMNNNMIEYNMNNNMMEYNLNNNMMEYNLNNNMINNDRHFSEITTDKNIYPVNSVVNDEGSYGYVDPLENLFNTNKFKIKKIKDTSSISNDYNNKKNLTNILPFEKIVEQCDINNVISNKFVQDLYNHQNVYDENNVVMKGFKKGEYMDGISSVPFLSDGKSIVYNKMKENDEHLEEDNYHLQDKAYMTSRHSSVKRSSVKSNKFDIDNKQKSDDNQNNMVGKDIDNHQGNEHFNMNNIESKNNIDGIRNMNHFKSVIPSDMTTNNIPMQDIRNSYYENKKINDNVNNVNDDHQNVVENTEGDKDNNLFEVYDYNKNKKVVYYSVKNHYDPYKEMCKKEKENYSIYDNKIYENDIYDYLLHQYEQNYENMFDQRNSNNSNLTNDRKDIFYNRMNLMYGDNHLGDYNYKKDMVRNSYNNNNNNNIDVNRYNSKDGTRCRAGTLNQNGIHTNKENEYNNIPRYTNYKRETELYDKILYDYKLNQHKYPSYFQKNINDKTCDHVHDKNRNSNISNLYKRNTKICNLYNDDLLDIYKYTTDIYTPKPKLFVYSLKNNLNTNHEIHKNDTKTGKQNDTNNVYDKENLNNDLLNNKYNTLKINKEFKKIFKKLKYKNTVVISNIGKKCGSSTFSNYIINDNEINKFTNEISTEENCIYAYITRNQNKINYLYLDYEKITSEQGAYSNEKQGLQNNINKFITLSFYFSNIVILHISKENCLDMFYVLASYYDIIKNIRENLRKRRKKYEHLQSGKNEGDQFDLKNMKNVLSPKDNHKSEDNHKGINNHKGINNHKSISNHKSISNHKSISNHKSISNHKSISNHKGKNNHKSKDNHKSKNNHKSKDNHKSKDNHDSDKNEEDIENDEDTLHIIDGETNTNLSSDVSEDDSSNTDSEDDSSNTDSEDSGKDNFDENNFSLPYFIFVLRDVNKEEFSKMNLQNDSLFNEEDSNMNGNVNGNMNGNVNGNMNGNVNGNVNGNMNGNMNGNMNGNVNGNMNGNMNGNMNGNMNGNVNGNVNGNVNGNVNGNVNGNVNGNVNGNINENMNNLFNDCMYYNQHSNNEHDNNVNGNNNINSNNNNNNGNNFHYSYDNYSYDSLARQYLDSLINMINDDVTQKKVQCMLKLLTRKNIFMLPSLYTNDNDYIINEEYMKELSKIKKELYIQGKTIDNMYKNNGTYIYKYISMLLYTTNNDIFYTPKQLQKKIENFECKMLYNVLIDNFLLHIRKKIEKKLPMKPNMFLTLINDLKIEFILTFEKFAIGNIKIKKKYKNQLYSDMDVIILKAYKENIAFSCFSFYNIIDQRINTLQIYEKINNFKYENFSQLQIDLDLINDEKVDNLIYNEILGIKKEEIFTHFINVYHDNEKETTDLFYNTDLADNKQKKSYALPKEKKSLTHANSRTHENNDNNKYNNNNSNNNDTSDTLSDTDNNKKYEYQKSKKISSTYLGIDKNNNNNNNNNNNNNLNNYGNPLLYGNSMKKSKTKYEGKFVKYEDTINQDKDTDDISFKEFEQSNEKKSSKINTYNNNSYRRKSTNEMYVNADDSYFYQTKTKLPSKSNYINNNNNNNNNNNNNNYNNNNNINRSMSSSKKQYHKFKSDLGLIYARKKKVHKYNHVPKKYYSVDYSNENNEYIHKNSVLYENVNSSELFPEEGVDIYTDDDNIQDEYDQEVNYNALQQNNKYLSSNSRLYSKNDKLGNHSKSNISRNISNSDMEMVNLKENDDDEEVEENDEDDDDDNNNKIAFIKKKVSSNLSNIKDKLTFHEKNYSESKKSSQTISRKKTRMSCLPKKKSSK
UniProt C0H4K4: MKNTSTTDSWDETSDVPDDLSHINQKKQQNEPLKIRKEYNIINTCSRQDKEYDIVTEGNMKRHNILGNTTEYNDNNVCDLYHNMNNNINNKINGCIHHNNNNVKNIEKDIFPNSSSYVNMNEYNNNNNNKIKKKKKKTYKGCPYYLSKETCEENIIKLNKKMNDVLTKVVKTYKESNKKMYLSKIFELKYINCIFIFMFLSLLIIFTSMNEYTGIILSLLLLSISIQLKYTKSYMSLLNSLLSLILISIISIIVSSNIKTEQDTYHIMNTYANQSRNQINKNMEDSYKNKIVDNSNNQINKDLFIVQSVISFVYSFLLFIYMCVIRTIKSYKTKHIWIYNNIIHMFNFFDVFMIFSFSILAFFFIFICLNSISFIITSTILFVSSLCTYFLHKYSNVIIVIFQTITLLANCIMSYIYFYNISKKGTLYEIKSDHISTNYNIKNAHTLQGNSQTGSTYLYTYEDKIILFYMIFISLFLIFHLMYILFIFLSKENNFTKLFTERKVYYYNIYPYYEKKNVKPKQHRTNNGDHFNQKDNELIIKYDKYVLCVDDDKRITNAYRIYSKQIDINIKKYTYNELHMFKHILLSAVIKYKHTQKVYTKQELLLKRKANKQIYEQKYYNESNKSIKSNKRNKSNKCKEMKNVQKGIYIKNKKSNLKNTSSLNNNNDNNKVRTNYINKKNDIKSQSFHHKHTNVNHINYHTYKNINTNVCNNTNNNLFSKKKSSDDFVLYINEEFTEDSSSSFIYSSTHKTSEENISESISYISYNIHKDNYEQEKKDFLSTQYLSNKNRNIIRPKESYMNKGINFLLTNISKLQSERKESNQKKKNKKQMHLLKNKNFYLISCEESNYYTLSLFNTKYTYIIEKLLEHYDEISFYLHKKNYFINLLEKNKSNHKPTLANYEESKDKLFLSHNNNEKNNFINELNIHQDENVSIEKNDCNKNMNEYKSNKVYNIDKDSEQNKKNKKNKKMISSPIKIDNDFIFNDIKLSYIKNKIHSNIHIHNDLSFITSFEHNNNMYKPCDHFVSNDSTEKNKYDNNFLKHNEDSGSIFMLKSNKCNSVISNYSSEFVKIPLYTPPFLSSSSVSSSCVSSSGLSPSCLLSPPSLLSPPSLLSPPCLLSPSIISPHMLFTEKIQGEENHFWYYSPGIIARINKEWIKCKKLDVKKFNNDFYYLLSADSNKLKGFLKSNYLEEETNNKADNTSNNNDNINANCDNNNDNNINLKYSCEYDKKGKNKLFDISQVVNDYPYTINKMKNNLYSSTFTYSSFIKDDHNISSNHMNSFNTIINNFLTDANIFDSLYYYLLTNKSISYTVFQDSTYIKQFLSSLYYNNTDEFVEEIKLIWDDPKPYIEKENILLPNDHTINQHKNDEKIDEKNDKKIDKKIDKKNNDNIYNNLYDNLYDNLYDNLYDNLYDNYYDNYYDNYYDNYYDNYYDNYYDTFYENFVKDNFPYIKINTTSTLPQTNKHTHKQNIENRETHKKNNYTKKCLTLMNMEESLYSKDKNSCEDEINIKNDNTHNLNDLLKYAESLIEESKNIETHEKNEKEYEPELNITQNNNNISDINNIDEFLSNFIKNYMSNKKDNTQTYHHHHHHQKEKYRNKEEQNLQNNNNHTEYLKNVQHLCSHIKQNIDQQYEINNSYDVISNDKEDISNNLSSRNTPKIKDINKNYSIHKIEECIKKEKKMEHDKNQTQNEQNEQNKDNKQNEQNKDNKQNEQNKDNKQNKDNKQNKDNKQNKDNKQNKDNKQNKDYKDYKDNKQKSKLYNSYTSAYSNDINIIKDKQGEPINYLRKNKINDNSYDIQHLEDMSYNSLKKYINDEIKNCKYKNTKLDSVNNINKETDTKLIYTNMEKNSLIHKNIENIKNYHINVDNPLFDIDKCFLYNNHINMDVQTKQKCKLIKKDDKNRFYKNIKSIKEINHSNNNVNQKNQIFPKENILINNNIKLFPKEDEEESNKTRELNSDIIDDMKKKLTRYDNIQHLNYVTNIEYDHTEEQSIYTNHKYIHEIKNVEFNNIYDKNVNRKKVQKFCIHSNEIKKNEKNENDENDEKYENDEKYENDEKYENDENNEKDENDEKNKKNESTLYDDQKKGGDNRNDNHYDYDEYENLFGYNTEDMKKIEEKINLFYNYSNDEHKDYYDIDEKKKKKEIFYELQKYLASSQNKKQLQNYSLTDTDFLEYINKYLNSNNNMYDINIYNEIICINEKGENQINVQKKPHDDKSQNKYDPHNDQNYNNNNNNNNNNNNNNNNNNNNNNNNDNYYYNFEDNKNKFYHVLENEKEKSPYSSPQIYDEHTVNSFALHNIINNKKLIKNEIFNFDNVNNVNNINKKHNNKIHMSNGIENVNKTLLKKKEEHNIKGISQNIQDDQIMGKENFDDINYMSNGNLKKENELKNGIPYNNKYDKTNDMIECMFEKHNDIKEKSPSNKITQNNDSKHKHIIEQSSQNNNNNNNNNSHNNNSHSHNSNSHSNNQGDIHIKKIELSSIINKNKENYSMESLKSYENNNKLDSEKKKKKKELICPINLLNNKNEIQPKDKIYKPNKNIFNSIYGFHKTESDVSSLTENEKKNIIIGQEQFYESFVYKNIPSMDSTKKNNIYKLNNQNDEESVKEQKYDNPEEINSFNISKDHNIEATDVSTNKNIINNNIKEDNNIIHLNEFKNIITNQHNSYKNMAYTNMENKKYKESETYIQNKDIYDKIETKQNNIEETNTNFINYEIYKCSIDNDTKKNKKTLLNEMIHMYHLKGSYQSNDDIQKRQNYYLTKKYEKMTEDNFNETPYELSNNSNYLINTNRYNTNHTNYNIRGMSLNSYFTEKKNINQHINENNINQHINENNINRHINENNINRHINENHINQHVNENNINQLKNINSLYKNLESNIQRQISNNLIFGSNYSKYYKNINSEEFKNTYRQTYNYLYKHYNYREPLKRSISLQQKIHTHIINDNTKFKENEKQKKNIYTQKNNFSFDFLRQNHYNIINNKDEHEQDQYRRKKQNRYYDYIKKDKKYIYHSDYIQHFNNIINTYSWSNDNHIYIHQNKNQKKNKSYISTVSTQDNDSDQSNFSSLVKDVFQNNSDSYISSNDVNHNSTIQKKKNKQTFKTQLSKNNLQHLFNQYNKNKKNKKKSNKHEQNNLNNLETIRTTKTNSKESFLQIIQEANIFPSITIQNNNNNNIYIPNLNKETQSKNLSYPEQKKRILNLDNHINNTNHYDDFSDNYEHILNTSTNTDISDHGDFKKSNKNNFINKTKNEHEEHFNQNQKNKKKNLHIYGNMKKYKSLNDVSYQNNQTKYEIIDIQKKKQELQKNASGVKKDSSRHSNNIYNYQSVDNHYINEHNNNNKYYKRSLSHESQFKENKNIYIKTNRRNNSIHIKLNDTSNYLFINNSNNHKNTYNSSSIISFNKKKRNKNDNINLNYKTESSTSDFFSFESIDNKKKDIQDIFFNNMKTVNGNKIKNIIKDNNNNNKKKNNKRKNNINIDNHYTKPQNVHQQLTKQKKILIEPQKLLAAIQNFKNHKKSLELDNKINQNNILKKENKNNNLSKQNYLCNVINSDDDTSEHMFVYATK

B1: PF3D7_1351700 (PfIMC1f) (protein, UniProt A0A5K1K988 1-1318)
chain: MLKNTTKCDNIIKREQNRVLLQKKLSKDSVTSTKFCDSSEEREGSSNTSSNVSFKILEESNITKNLNEDKSYSFECDKEETLRKDYKKLNKKNSNKINKSNSLNQTNEEIIRDKTSVQNKKIHHEVLEEQEKDNSIKLNKNKVGIYFDNTTNSINNNIQKDNSDTLGTESYSTHKSNLNEVLNVSGDNSKHLLAPISSNDIIKKEDSNIYYNLNENSTYYYPNNNSKNYINKFLNNYNTPNVVDSFSYCGTNFHSGNISTSYNDRYLNGYSNNYMINNSINSSINSSINNSINSSINNSINNSIDNSINNSINNSISHFNTSYPNSNNNNNNNNNNLNYSMSNNFNSYPNNILNYNLNNQFINAYPINNLNYNSTSHFNMYPNKNMLINDTLNNTNSYINNMKYSGNNIMSEQNNILNETEFIGSYHNSSAPIISNQENNISNLGNTSAYVNDNTTYGNISGRNMYSGVINYENITDDNKMIKSDNNVVPTINTFYSSKNIGESTNGNVVVRKNYVDNTYDNNSNEEHSIENKEIYKSKSVSVSENETIKNDNVSVSVSEKVSSHTDYSRAKHSSHVVDKRIVHEGFDTIKIPKYREVEIVEKIVEVPVVHKVNKYVNKYEIKEVEKVVKKHINKYVETKIEVPELHYQDKIVEVPELQEVIKIIEKPEIKERIIYKNKIETKIIPKYIEVPVVKIVNRYEEYDDVGEVVKAVPVKKIVEIPNEIIKKVKVPVKKIIERPNYVPVIKYRDIPIEKIRYVPKIETVELVKKIPKIIDVPVPVKVPKIKVIDKPFYVNKYVDKPVVIPVSKTIKPVYKYEGKKIIEIPIHKPYLVTHDTVVNKNVENNMNSGRYSVYAKRLDLNSFDPIKRNELFNLVNKDNINFQRSMSVDDFVNNNSYVDGKEKYTDKLNENSVFNNYNGIGNKDNLDNMNKIKFTQSLNNNNNMSTTKHSNMEVSSQGYGYINDGKENMYNNYNNMNNLNIKGSEDASFHTKKSIFDNLNNDNINNINNNNNINKNYEENRKSSYGTSIHNTPNILPNRHNSMYPSNGNHMGEFISLKSFQNKKYSNSTIVDSEKAMNYTYGNFLSPTGVYNNGLYMENKDKNNMVYENNKKDMNTINYNNNNNNNNNNNIYYSANNKSPNNIHKLNMSNSMMKTNTFGNYPNIYRNSYMENKPEDMYLNRYTTKSNIINNNNNNNNNNNNSNNSNNSNYFYNGRNSSINNAFAYKQYYDSNKNGNNQHRLSHPSNMVHNINNSRTRSPSTCSADGISAYVVEYVGDENIMYNNGNTPFSSNGLLNNLGKTMEGSNYSFNGVPVNQK
B2: PfBTP1 (protein, UniProt C6KSW1 1-650)
chain: MKNTNKNNNIQSDTLSVNINNSNDFNKVLHEIKKKETQNDKRNNSSKRNVKPQIKTKKDNDTRNVTKEYEKNNIKNVRSLSNNKNNTTYLKKQNIEDDEDEKNIKFYDTPIFPYITSLILDYENDNKKPEPVSNVIESKEQIKRYNSHNKIERKNTIYDIYEKTLKKLSIQEENVVEKNEEHLYNSKSLEHKKSTTSEGSKIKSSVINTNISNNSFDESSSNDISVIQQKNHETKKDTKKPKQYHINDDTLRNDSNNSNYDHNNTCESINSSNEYNNNYKNKVHIYENQKEKGENEKETQNMKQQQYNNNVIKTNEKNHKVTNAFDDYYIDEEHFRQRSITIMQDKKKKKKNDRSYSLDSKSIISDELKEKNNEKEDLKKKEIKNNEEKLNTNKNESNQNSSHENIYYQKKTSQNENINHSLNDQTYKIKKKKSYDKQYTQKLYTRSDITTTDSDSSINEKLNISYEIFKSKNENKMFSIDQEKKNKDSLLKVVNSKNILNIRKILRIMRELYIGFIGLQLIYFITYILFGNNNVYLIQIISMSCTLFSLLDANYHGYLLNGFIDICIAIFLNIAILQNISGFKTLQSNDVLKNITISNIVLLYFFSAFSFLNSYFIYKLHSLEKKSINYVIRNIESKTEKNIKKSVSTK
B3: PfMORN1 (protein, UniProt Q8IJ93 1-364)
chain: MTEVTHCYNGNIKDGLFHGFGILIYSQHEKYEGDFVYGKREGRGKFTYADGATYEGEWVDDKIHGKGIANFVSGNIYEGEWENGKINGFGMLCYNNGDKYEGEWLDGKMHGRGTYTYEDGDVYIGEWKNDKRHGKGCVKYKGNENKIAETYEGDWVDGKMQGRGTYFFADGGIYEGDWVDGKMEGKGVYKYLNGNKYEGEWINDMKNGYGTLAYVNGELYEGYWKNDKVHGKGTLTYSKGDKYIGEWKYAKKCGEGELIYASGDKFKGQWKNDKANGYGILLYNNGNKYEGEWLDDHRHGMGTFTCKEDGTIYSGHFQFNRKHGKGTLTFVNGHILQGIWNSGLLEKVINYELTPSSPWNDPDL

biological target: P. falciparum coordinator of nascent cell detachment (PfCINCH), PF3D7_0407800, with the spaghetti monster V5 tag at its carboxy terminus (Plasmodium falciparum (3D7)) (UniProt Q9U0K8); assay: affinity purification with mass spectrometry; RIPA lysate of ~48 hpi PfCINCH^smV5-Tet schizonts on magnetic anti-V5 beads, 3 h at 4 °C, three RIPA washes, on-bead digestion; two biological replicates; control line PF3D7_1419700^smV5

binding, binds:
PF3D7_1018200 (PfPPP8) (from UniProt C6S3C9 1-2166) (enzyme)
P. falciparum basal complex transmembrane protein 2 (PfBTP2), PF3D7_0704100 (from UniProt C0H4K4 1-3559)
Pf3D7_1229800/PfMyoJ (from UniProt A0A144A488 1-2274)
P. falciparum basal complex protein 1 (PfBCP1), PF3D7_1436200 (from UniProt Q8ILA2 1-2269)
B1
B2
B3
